The campaign covered roughly 52,000 sequences. About 210 (0.4%) were called active.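 Rule for the calls: active = gene whose silencing raises cell survival under the drug, median off-target-corrected z-score across its silencing RNAs 2 or more; inactive = the rest.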 This is one part of the list.

In PubChem BioAssay AID1347423 (Functional Genomics Laboratory (NCATS/FGL), 2020) one finds z-score data, which are given here for 105 sequences.

The test is described as follows: Resistance to Poly (ADP-Ribose) Polymerase inhibitor: Gene Identification via Genome-wide siRNA Screen. To be noted: mouse BRCA2 R2336H ES cells, olaparib, CellTiter-Glo viability; hits give high values. The essentials:
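Genome-wide siRNA screen (3 siRNAs/gene, 20 nM) in mouse ES cells carrying hypomorphic BRCA2 R2336H; olaparib 500 nM added 48 h post-transfection, CellTiter-Glo viability 72 h later. Normalized to plate-median negative control; MAD z-scores, gene median, seed-adjusted.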
As to GGAUGAAGAGAAAGACAAGTT against Zipro1, the z-score was inactive: -1.71.

GCAAAGUUACACAUCAAAGTT against Agtr1: the z-score is inactive: 1.32.

Take CCUAUGGAAGGUUUAAGAUTT against Ptpn21: the z-score is inactive: 0.314.

Consider “GGCUAGAGACUUGGUUUUUTT against E430025L02Rik”, for which the z-score was inactive: 1.23.

CCUCUUGGCCUCCUUUGAUTT against Tas2r143: the z-score is inactive: -0.729.

Take CCUAGAUGACACUUGGGUGTT against Nup35: the z-score is inactive: -1.28.

Consider “GGGAUAUCCCAGAACAAGATT against D8Ertd531e”, for which the z-score was inactive: -1.8.

On to “CGAAGUUCCCUUUGAGUUUTT against 2610024G14Rik”, for which the z-score was inactive: 0.888.

Turning to GGGCCAAUAAAGCAACUGCTT against Laptm5, the z-score is inactive: 0.781.

Take GGUAGAAUCCGGUUACCACTT against Tox: the z-score was inactive: 0.763.

Regarding GGAGAAGAAGAAAAGAACATT against Pom121, the z-score is inactive: -3.12.

On to “GUGUAUGCGCUGAUCCUAUTT against 1700020N01Rik”, for which the z-score was inactive: 2.32.

As to GGGAGCUAGCAAAAUCGGATT against Eif4g3, the z-score was inactive: 0.652.

Consider GGAACUGCUCAUAAAAACATT against Evi2b, for which the z-score was inactive: 1.43.

As to GGGAGACUUUGUACGGAAGTT against Gars, the z-score was inactive: -2.19.

For CCAUGGCUUAAAAGCCGAATT against Mapt, the z-score is inactive: 1.75.

Consider GCUAAUUAUUGAGUAUGCGTT against Klhl10, for which the z-score is inactive: 0.612.

As to GGAAGAUACAAGUCUUUUUTT against Akap12, the z-score was inactive: 0.925.

With CGUACCAGAUGAGCUAAGUTT against Zfp513, the z-score was inactive: 0.118.

On to GGAAGACGAAUUCUUAAGUTT against H2-M10.6, for which the z-score was inactive: -0.227.

In the case of GGCCAUCAUAUCACCAUUUTT against BC025872, the z-score is inactive: 1.76.

On to “GGAUAUUUGCUUCUUUCACTT against A330008L17Rik”, for which the z-score was inactive: 0.00592.

GGACUAUGUCUUUGACAAUTT against Tcfcp2l2: the z-score is inactive: 0.0983.

For the sequence CCAUAGAGAGUGCAGGUGATT against Mrpl39, the z-score was inactive: -0.399.

For “GCUUGAUCGCUUUCAACUCTT against 0610011B16Rik”, the z-score was inactive: 0.779.

With GGACUACAUAAACUUGUACTT against Nme5, the z-score is inactive: -1.78.

For GCGGCUACGUGUUUGACUATT against Csnk1g2, the z-score is inactive: 0.339.

For GGAGAUUGUGAGAGCCAUGTT against Kcnab3, the z-score was inactive: -0.137.

Take CCAGUAAGUUGCAUUCGAATT against Defb8: the z-score was inactive: 0.188.

On to “GGAAUCUGAUACCCAAGGATT against 1700007H16Rik”, for which the z-score is inactive: -1.4.

Turning to GGGACAUGGGAAGAACUCUTT against Gpr87, the z-score is inactive: 0.542.

GGAAAGGAAGAAGAAAUGATT against Rab13: the z-score is inactive: 0.291.

For the sequence CCCUUAGGGAGUGCUGUGATT against Gc, the z-score was inactive: -0.802.

Regarding GGAAGCAUUGAUUUUCAUCTT against Prok2, the z-score is inactive: 0.372.

Regarding GGACCACAGGGUCAAUUUCTT against Icam5, the z-score was inactive: 0.681.

Consider CCAUACCGAUCAAAUUCCCTT against Pfn2, for which the z-score was inactive: 0.355.

Take GGCCACACAGAUUAUCUUGTT against V1rc18: the z-score was inactive: 0.13.

For GCUAAGAACAUUCACAUAATT against Pon3, the z-score was inactive: -0.694.

For the sequence GGAAGCAGAGCCCGAAAAATT against MGC67311, the z-score was inactive: -0.223.

With GGCAGAAUAAUAAUCCACATT against Ovol1, the z-score is inactive: 0.271.

With CCUAGGGUAUUCAAUCAUGTT against Nfya, the z-score was inactive: -0.711.

For the sequence CCGUGUGGUCUGAUAAAAGTT against Fbxl8, the z-score is inactive: -0.881.

Take GGAUUCCAGAUUAAAUGAUTT against Recc1: the z-score is inactive: -0.171.

Take “GGCAGAAUACUAUAUAUAGTT against 2310042M24Rik”: the z-score is inactive: -1.11.

In the case of CCUAGGGACAUUGGUUAUUTT against Sema4f, the z-score is inactive: 0.221.

Regarding “GUCAGUAUGGAGCGAUGGGTT against D11Bwg0280e”, the z-score is inactive: -0.164.

Turning to GGACGACAAUCGACAAUCGTT against Acta1, the z-score was inactive: -0.251.

On to GGACCAGCUGAUAGAAGUCTT against Ap3b2, for which the z-score is inactive: 1.14.

GGAGAUUAGUUACUUCCAGTT against Slc1a7: the z-score was inactive: 0.865.

As to “GCUAGUGAGUCGCUUGACUTT against 4833412N02Rik”, the z-score is inactive: -1.95.

Consider GGGAAAAGAACUUGCAUGUTT against Tmsb4x, for which the z-score was inactive: 2.08.

Take GCAGCACCUAAUGGGCAAATT against Bcl9l: the z-score is inactive: -0.202.

As for “CCAGUUAAAAAGGUUCCAATT against A730037C10Rik”, the z-score was inactive: -0.805.

Consider GAGAUGCAUUGUUUCAGGUTT against V1rh9, for which the z-score is inactive: 0.465.

Take “GGUUUUGGAAAAAGUGGAUTT against 1500003O03Rik”: the z-score was inactive: 0.795.

Take GCUCGUACAAUGCAUUGCCTT against Thnsl1: the z-score is inactive: 0.858.

For GGCACUCCUUCUCAGUUGCTT against Chek2, the z-score is inactive: 0.2.

For GGUGGUAGAACCACUGAAGTT against Pxk, the z-score was inactive: -0.442.

Take CGUGUCUUUAUUCAUCCCATT against C1s: the z-score is inactive: 0.29.

Turning to GCUGCUACGCCAAACUUAATT against Ssx2ip, the z-score is inactive: 0.988.

GCUUCGUAAAGUUUGCACUTT against Exosc10: the z-score is inactive: -0.535.

Consider “CCUGCUAGAGCCAUUAUUGTT against 0610016J10Rik”, for which the z-score was inactive: 0.336.

Turning to GGUCAUUGAUCUCAGCAACTT against Optc, the z-score is inactive: -0.456.

Regarding CCAGCCUCUUCUAAUACACTT against Preb, the z-score is inactive: -0.0906.

Consider GCCAUGUACUCCUUACUGGTT against Mrc1, for which the z-score is inactive: 0.164.

GCGAUAGAAGCACUCCAAGTT against Bub1b: the z-score was inactive: 0.119.

With CGGCGACUUCUUCAGCUAUTT against Aldh2, the z-score is inactive: 1.12.

Turning to CCCUUCACAACUUCUUAAUTT against Olfr872, the z-score is inactive: 0.609.

Turning to GAAGUCCACUGAACUUCUGTT against H3f3a, the z-score is inactive: 0.742.

With GGACUGAGGAGAGCAAUAUTT against Cts6, the z-score was inactive: -0.449.

Regarding GGAUGUAUGCCAAAGAAUUTT against Fmo5, the z-score is inactive: 2.41.

On to GGUUGGCCAUAUAAAGAGATT against Smarca3, for which the z-score is active: 0.771.

Turning to GGGACUUAUGUCCAGGAAGTT against Centg3, the z-score was inactive: 1.11.

Take GGAGCUUACUACAAAGCUATT against Gnb4: the z-score was inactive: -0.209.

In the case of “GGACUCUGGACCUUAUGCUTT against 4930425N13Rik”, the z-score was inactive: -0.255.

As for CGUGUUCUUGCUCAAGGAGTT against Rilp, the z-score was inactive: -0.546.

As for GGGUUAAUGCAGCUCACGUTT against Lrrtm1, the z-score is inactive: 0.54.

Take CCAUUCAUUUUUGAUGACCTT against Tlr3: the z-score was inactive: 1.03.

Consider GGCGGGAGUACUAAAUGAATT against Eppk1, for which the z-score is inactive: -0.446.

As to GGUUCGUCGCCUUUUAGGGTT against Alx4, the z-score was inactive: -0.3.

Consider GGACAGCAUCCGAAAAGUGTT against Thbs1, for which the z-score was inactive: -2.14.

Turning to GCAAUUAAGGUAGAGUCUGTT against Rassf1, the z-score was inactive: -0.115.

As to GCAGAUUCUCCGAUUACACTT against Fbxw8, the z-score was inactive: 0.914.

Regarding “GCCCAUAGUAUAAAAUACCTT against 2810422M04Rik”, the z-score was inactive: 0.811.

In the case of GCCACCCACCUAAAAUCAATT against BC025872, the z-score is inactive: 0.573.

Regarding GCCUUAAGAGAUGUAUUUCTT against V1rc14, the z-score is inactive: -0.542.

Take “GCCUGCUAGAGGAUUUCAATT against 4930534B04Rik”: the z-score is inactive: -1.62.

For GGACUAGAAGAUCUACACUTT against Olfr67, the z-score was inactive: -0.232.

On to CGACCACAUUAUUGGGUUUTT against Senp8, for which the z-score was inactive: -1.22.

As to CCUGCUGGUAUAGAGUAUGTT against Eps8l2, the z-score was inactive: 0.18.

Regarding CCUUGUUGUUUGUCUCGACTT against Ern1, the z-score was inactive: 0.406.

As for “GGUUUUGUCUGAUAAAACATT against 1110007C02Rik”, the z-score is inactive: 1.54.

In the case of GGGACAACACAUUAACUUATT against Uckl1, the z-score was inactive: 0.538.

Regarding “GGCAUUGAAGCUGAAAAGATT against 1700052N19Rik”, the z-score is inactive: 0.502.

For the sequence GAUAUUUCCACUCUAGCACTT against Fcrlm2, the z-score was inactive: -0.141.

On to “GGCAGAACAGGCAUUUUCATT against 9130020G22Rik”, for which the z-score is inactive: -1.42.

Take “GGACUUUGUGGACAAAAUUTT against 0610009H04Rik”: the z-score was inactive: -0.266.

With CCCAAGUGGUAAGAUUGGUTT against Rps3, the z-score was inactive: -2.3.

In the case of GGGACACUAGAAGUAGGGATT against Pramel5, the z-score is inactive: 0.667.

As for “CCCUAGACCAGUAAAUACCTT against 1110002H13Rik”, the z-score was inactive: 1.38.

For the sequence AGGAAAGAAAAUAUGCUGATT against Cox17, the z-score is inactive: 0.48.

Consider GGACUCUUUUCUACGUGGATT against Klhl1, for which the z-score was active: 3.47.

For GCAUGUAUGCUGGAAAAUCTT against MGC107415, the z-score is inactive: -0.759.

In the case of GGGCAAUGAUUUAUACCAUTT against Atp5b, the z-score was inactive: 2.57.

As to CGAGUUCGGUAUGAGUGGATT against Clptm1, the z-score is inactive: -1.24.
